Measured values as given in US20060110333A1 (priority 2002, published 2006).

Experiment: Plasma morphine concentration after single administration (LC-MS/MS) and pharmacokinetic parameters
Conditions: rhesus monkey; for Plasma morphine concentration (in terms of morphine hydrochloride) / concentration at 60 min: Morphine HCl 2 mg; for concentration at 60 min: Plasma morphine concentration (in terms of morphine hydrochloride)

CN1CC[C@]23c4c5ccc(O)c4O[C@H]2[C@@H](O)C=C[C@H]3[C@H]1C5.Cl [Comparative Example 1, morphine hydrochloride]
Plasma morphine concentration (in terms of morphine hydrochloride) (0 min, Animal 1, oral): — (“-” indicates that the concentration was under the detection limit (4.3 ng).)
Plasma morphine concentration (in terms of morphine hydrochloride) (0 min, Animal 2, oral): — (“-” indicates that the concentration was under the detection limit (4.3 ng).)
Plasma morphine concentration (in terms of morphine hydrochloride) (0 min, Animal 3, oral): — (“-” indicates that the concentration was under the detection limit (4.3 ng).)
Plasma morphine concentration (in terms of morphine hydrochloride) (5 min, Animal 1, oral): — (“-” indicates that the concentration was under the detection limit (4.3 ng).)
Plasma morphine concentration (in terms of morphine hydrochloride) (5 min, Animal 2, oral): — (“-” indicates that the concentration was under the detection limit (4.3 ng).)
Plasma morphine concentration (in terms of morphine hydrochloride) (5 min, Animal 3, oral): — (“-” indicates that the concentration was under the detection limit (4.3 ng).)
Plasma morphine concentration (in terms of morphine hydrochloride) (10 min, Animal 1, oral): — (“-” indicates that the concentration was under the detection limit (4.3 ng).)
Plasma morphine concentration (in terms of morphine hydrochloride) (10 min, Animal 2, oral): — (“-” indicates that the concentration was under the detection limit (4.3 ng).)
Plasma morphine concentration (in terms of morphine hydrochloride) (10 min, Animal 3, oral): — (“-” indicates that the concentration was under the detection limit (4.3 ng).)
Plasma morphine concentration (in terms of morphine hydrochloride) (20 min, Animal 1, oral): — (“-” indicates that the concentration was under the detection limit (4.3 ng).)
Plasma morphine concentration (in terms of morphine hydrochloride) (20 min, Animal 2, oral): — (“-” indicates that the concentration was under the detection limit (4.3 ng).)
Plasma morphine concentration (in terms of morphine hydrochloride) (20 min, Animal 3, oral): — (“-” indicates that the concentration was under the detection limit (4.3 ng).)
Plasma morphine concentration (in terms of morphine hydrochloride) (30 min, Animal 1, oral): — (“-” indicates that the concentration was under the detection limit (4.3 ng).)
Plasma morphine concentration (in terms of morphine hydrochloride) (30 min, Animal 2, oral): — (“-” indicates that the concentration was under the detection limit (4.3 ng).)
Plasma morphine concentration (in terms of morphine hydrochloride) (30 min, Animal 3, oral): — (“-” indicates that the concentration was under the detection limit (4.3 ng).)
Plasma morphine concentration (in terms of morphine hydrochloride) (60 min, Animal 2, oral): — (“-” indicates that the concentration was under the detection limit (4.3 ng).)
Plasma morphine concentration (in terms of morphine hydrochloride) (120 min, Animal 1, oral): — (“-” indicates that the concentration was under the detection limit (4.3 ng).)
Plasma morphine concentration (in terms of morphine hydrochloride) (120 min, Animal 2, oral): — (“-” indicates that the concentration was under the detection limit (4.3 ng).)
Plasma morphine concentration (in terms of morphine hydrochloride) (120 min, Animal 3, oral): — (“-” indicates that the concentration was under the detection limit (4.3 ng).)
Plasma morphine concentration (in terms of morphine hydrochloride) (240 min, Animal 1, oral): — (“-” indicates that the concentration was under the detection limit (4.3 ng).)
Plasma morphine concentration (in terms of morphine hydrochloride) (240 min, Animal 2, oral): — (“-” indicates that the concentration was under the detection limit (4.3 ng).)
Plasma morphine concentration (in terms of morphine hydrochloride) (240 min, Animal 3, oral): — (“-” indicates that the concentration was under the detection limit (4.3 ng).)
Cmax (male, plasma, po, 2 mg): 5.3 ± 5.5 ng/mL
concentration at 60 min (male, plasma, po, 2 mg, 60 min, Animal 1, oral): 5 ng/mL
concentration at 60 min (male, plasma, po, 2 mg, 60 min, Animal 3, oral): 11 ng/mL
